Consider 67 molecules from PubChem BioAssay AID1458 (National Center for Advancing Translational Sciences (NCATS), 2008).

Hit rate of the full screen: of about 210,000 compounds, about 5,900 (2.8%) were called active. Another 5% or so got no clear call; they are omitted. Calls come from the whole dose curve; as a rule, active = well fitted activation curve with a large enough effect; inconclusive = small, poorly fitted or top-dose-only effect; inactive = no such curve, though single readings can be large or run the other way. Only a part is listed here, and it is no random draw. Entries without a call were filed so in the source.
Potency is the fitted concentration of half-maximal effect.

This experiment is described as follows: qHTS Assay for Enhancers of SMN2 Splice Variant Expression. For activity change, positive = activation: % of control where 0% means no effect. Note: nearly all actives have a fitted effect of over 55% in size. The conditions noted are these: HEK293 SMN2-luciferase splicing reporter, luminescence, 30-36 h; activity change, positive = activation: at 46.1 µM (top of the series) unless noted. The method in brief: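 HEK293 cells carry an SMN2 […]–luciferase reporter in which exon 7 inclusion puts luciferase in frame. Cells were plated 10-12 h before compound addition, then incubated 30-36 h at 37C. ONE-Glo luminescence was read; sodium butyrate at 4.5 mM final served as control.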
(Quantitative high-throughput screening tests each substance at several concentrations.)
For `COc1ccc(/C=N/c2oc(-c3ccccc3)cc2C#N)cc1OC`, the “activity change, positive = activation” value is inactive: -43.5%.
Same read-out and setting: then `CCOC(=O)c1c(C)[nH]c(C(=O)COC(=O)CNC(=O)c2ccccc2Cl)c1C`, with 67.1%.
In the case of `Fc1cccc(Cl)c1Cn1nnc(-c2ccc3c(c2)OCO3)n1`, the Potency is active: 12.6 µM.
Take `COc1ccccc1C(=O)NCCCn1cc(Br)c(C)n1`: the activity change, positive = activation turned out to be 36.5%.
For the molecule `CN(C)c1ccc(/C=C(/C#N)C(=O)NCc2ccccc2)o1`, the Potency is active: 12.6 µM.
As for `COc1ccccc1N1CCN(S(=O)(=O)c2ccc(F)cc2)CC1`, the activity change, positive = activation was -52.5%.
`CC(CC(=O)N1CCN(c2ccc(C(F)(F)F)cn2)CC1)n1ccnc1` (configuration not stated): the “activity change, positive = activation” value is inactive: -33.6%.
With `CCC(=O)Nc1nc(=S)ss1`, the activity change, positive = activation is -37.2%.
Still for that read-out and setting: then `COC(=O)C1=C(C)OC(N)=C(C#N)C1c1c(C)nn(C)c1C` (configuration not stated), with 30.6%.
Consider `COc1ccc(CN=C2NN=C(c3ccc(Cl)cc3)CS2)cc1`, for which the Potency was active: 20 µM.
For the molecule `CN1/C(=C\C(=O)COc2ccc3c(c2)OCO3)C(C)(C)c2ccccc21`, the activity change, positive = activation was -68.4%.
As for `COC(=O)c1ccc(-c2nc3cc(Cl)c(N)cc3s2)cc1`, the Potency is active: 1.41 µM.
Regarding `COc1ccc(/C=C\C(=O)c2c(O)ccc3c(C)cc(=O)oc23)cc1OC`, the “activity change, positive = activation” value is inactive: -46.3%.
With `O=C(CCC1N=C2c3ccccc3N=C(SCc3ccc(F)cc3)N2C1=O)NCc1ccco1` (configuration not stated), the activity change, positive = activation is 37.2%.
With `Cc1cc2nc(-c3cccnc3SCC(=O)NC3CC3)[nH]c2cc1C`, the Potency is active: 15.8 µM.
Regarding `COc1ccccc1N1CCN(C(=O)/C=C/c2ccco2)CC1`, the activity change, positive = activation was 30.7%.
For the molecule `CCN(CC)S(=O)(=O)c1ccc2oc(SCc3ccc(F)cc3)nc2c1`, the activity change, positive = activation is -82.7%.
With `COC(=O)c1cnc(SCc2ccc(Cl)cc2)n1C`, the activity change, positive = activation stood at 34.9%.
With `Fc1ccc(CSc2nnc(-c3ccncc3)o2)cc1`, the “activity change, positive = activation” value was inactive: -30.2%.
On to `COc1ccc2nc(Nc3ccccc3OC)sc2c1`, for which the Potency was active: 2.82 µM.
As to `COc1ccc(S(=O)(=O)N(C)CC(=O)Nc2ccccc2C(F)(F)F)cc1OC`, the activity change, positive = activation is 31.9%.
Turning to `Cc1cccc(NC(=O)c2cc(-c3ccc(C)s3)nc3ccccc23)n1`, the “activity change, positive = activation” value was inactive: -31.4%.
For `COc1cccc(-c2noc(-c3cccnc3)n2)c1`, the Potency is active: 20 µM.
On to `CCn1c(=O)c(=O)n(CC)c2cc(N3CCCCC3)c(NC(=O)c3ccc(Cl)cc3)cc21`, for which the activity change, positive = activation is 42.9%.
Same read-out and setting: then `Cc1cccc(NC(=O)C2CCN(S(=O)(=O)c3c(C)noc3/C=C/c3ccco3)CC2)n1`, with inactive: -45%; and `CCCCN(C(=O)NC(=O)Nc1c(C)cc(C)cc1C)S(C)(=O)=O`, with 39.5%; and `CCS(=O)(=O)N1CCC(c2nc(-c3ccc(C(F)(F)F)cc3)no2)CC1`, with inactive: -47.2%.
Consider `CC1CCN(S(=O)(=O)c2ccc3c(c2)C(=NO)c2cc(S(=O)(=O)N4CCC(C)CC4)ccc2-3)CC1`, for which the “activity change, positive = activation” value is inactive: -98.1%.
Take `COc1ccc(N(C(C)C(=O)NC2CCCCCC2)S(C)(=O)=O)cc1` (configuration not stated): the activity change, positive = activation was 33.6%.
Take `COc1cc(C(=S)N2CCN(c3ccccc3Cl)CC2)cc(O)c1O`: the “activity change, positive = activation” value is inactive: -71.2%.
With `Cc1ccc(/C=C2\SC(=S)N(CCCC(=O)Nc3ccccn3)C2=O)cc1`, the “activity change, positive = activation” value was inactive: -62.4%.
Consider `CCC(=O)N1CCc2cc(Br)cc(S(=O)(=O)NCCN3CCCCC3C)c21` (configuration not stated), for which the activity change, positive = activation was 36.8%.
On to `CC(=O)Nc1cccc2c1[n+]([O-])c(C)c(C)[n+]2[O-]`, for which the activity change, positive = activation was found to be 33.6%.
With `COc1ccc(NC(=S)c2ccc(N(C)C)cc2)cc1`, the Potency was active: 11.2 µM.
Regarding `N#Cc1cccc(NC(=O)COC(=O)c2ccccc2C(=O)c2ccc(Cl)c([N+](=O)[O-])c2)c1`, the “activity change, positive = activation” value was inactive: -115%.
On to `CC(C)(C)C1(O)CC(C(F)(F)F)=NN1C(=O)Cc1ccc([N+](=O)[O-])cc1` (configuration not stated), for which the “activity change, positive = activation” value was inactive: -47%.
On to `Cc1cc(N2CCN(c3ccc([N+](=O)[O-])c4cccnc34)CC2)c2ccccc2n1`, for which the “activity change, positive = activation” value is inactive: -66%.
For `COc1ccc(NC(=O)CSc2nc3c(c(=O)n2-c2ccc(C)cc2)SCC3)c(OC)c1`, the activity change, positive = activation is -6.82%.
As for `O=C(CSc1cccs1)Nc1cccc2ccccc12`, the Potency is active: 12.6 µM.
In the case of `O=C(Nc1ccccc1)C1CCCCC1`, the activity change, positive = activation is 38.4%.
As to `COc1ccc(CCNc2nc(-c3cccnc3)cs2)cc1OC`, the “activity change, positive = activation” value is inactive: -33.2%.
As for `CCOC(=O)c1sc(NC(=O)Nc2ccc(F)cc2)nc1C`, the Potency is active: 1.26 µM.
With `N#CCSc1nnc(COc2cccc3ccccc23)n1-c1ccccc1`, the “activity change, positive = activation” value is inactive: -55.2%.
On to `Cc1c(C(=O)Nc2ccc3c(c2)CCC3)cccc1[N+](=O)[O-]`, for which the activity change, positive = activation was 99.5%.
Turning to `N#Cc1ccc(CN2CCC3(CC2)CCN(C(=O)c2ccncc2)CC3)cc1`, the “activity change, positive = activation” value is inactive: -35.9%.
As for `Cn1cc(Cl)c(C(=O)OCC(=O)Nc2nc(-c3ccc(Br)cc3)cs2)n1`, the Potency is active: 15.8 µM.
For the molecule `Cc1occc1C(=O)Nc1cc(=O)n(C)c(=O)n1C`, the activity change, positive = activation is 22.8%.
`COC(=O)c1ccc(CSc2nnc(Nc3ccc(C)cc3)s2)o1`: the activity change, positive = activation was determined as 34.5%.
With `CCN1C(=O)c2cccc3c(NC(=O)c4ccc(OC)c(OC)c4)ccc1c23`, the activity change, positive = activation stood at 78.5%.
Still for that read-out and setting: then `CCOC(=O)CC(=O)Nc1cc(Cl)ccc1O`, with 37.5%; and `CC(C)OC(=O)CCNc1n[nH]c(=O)[nH]c1=O`, with 30.8%; and `CCCCNC(=O)CSc1nccn1Cc1ccccc1`, with 37.3%.
As for `Cc1cc(C)cc(OCC(=O)Nc2ccc(-c3nc4ccccc4o3)cc2)c1`, the Potency was active: 6.31 µM.
Turning to `CNC(=O)c1cc2ncc(C(F)(F)F)cc2s1`, the activity change, positive = activation worked out at 41.5%.
As to `Cc1ccc(/C=C/C(=O)N2CCCC(C)C2)cc1` (configuration not stated), the Potency is active: 1.12 µM.
On to `COC(=O)Oc1ccc(/C=N/NC(=O)CSCc2ccccc2Br)cc1OC`, for which the “activity change, positive = activation” value was inactive: -51.5%.
As to `CCc1ccc(CNc2ccc(N3CCN(C(C)=O)CC3)cc2)cc1`, the activity change, positive = activation was -83%.
Turning to `CS(=O)(=O)N1CCc2cc(C(=O)NCCc3ccccc3)ccc21`, the Potency is active: 12.6 µM.
As to `COc1ccc(N2C(=O)CC(Cc3ccccc3)C2=O)cc1` (configuration not stated), the activity change, positive = activation came out at 38.3%.
`CCOC(=O)c1c(-c2ccc(OC)cc2)csc1NC(=O)CSc1ncnc2sccc12`: the activity change, positive = activation was -49.3%.
With `C(=N\Nc1nc(-c2ccccc2)cs1)/c1cccs1`, the Potency is active: 7.94 µM.
`COc1ccc(C2=NN(CN3C(=O)C(=O)c4ccccc43)C(c3ccc(OC)cc3)C2)cc1` (configuration not stated): the Potency was active: 10 µM.
As for `CC(=O)Nc1nc(N2C(=O)c3ccccc3C2=O)n(-c2ccccc2)n1`, the activity change, positive = activation worked out at 25.8%.
With `CC1CCN(C(c2ccc(N(C)C)cc2)c2nnnn2C(C)(C)C)CC1` (configuration not stated), the activity change, positive = activation stood at 56.6%.
`O=C(CSc1ncn(-c2ccccc2)n1)N1CCN(c2ccccc2)CC1`: the activity change, positive = activation was found to be 31.8%.
Turning to `COc1ccc(-c2c(C)nn3c(N4CCC(C(=O)NCCN(C)C)CC4)cc(C)nc23)cc1OC`, the activity change, positive = activation turned out to be 33.2%.
`O=C(CCc1ccc(S(=O)(=O)N2CCOCC2)cc1)OCc1nc2ccccc2s1`: the “activity change, positive = activation” value was inactive: -42.2%.
